Experimental findings from publication doi:10.1101/2025.09.02.671137 (bioRxiv, 2025) are described below.

One data set has as its system RPA. Put plainly: competition EMSA. The note with it: 20 nM RPA loaded first, displaced by Cdc13. Background: Mobility shift assays separate free from complexed probe on a gel.
The target in data set [1] is T1, Cdc13 (Saccharomyces cerevisiae) (UniProt P32797).
T1 sequence (looked up): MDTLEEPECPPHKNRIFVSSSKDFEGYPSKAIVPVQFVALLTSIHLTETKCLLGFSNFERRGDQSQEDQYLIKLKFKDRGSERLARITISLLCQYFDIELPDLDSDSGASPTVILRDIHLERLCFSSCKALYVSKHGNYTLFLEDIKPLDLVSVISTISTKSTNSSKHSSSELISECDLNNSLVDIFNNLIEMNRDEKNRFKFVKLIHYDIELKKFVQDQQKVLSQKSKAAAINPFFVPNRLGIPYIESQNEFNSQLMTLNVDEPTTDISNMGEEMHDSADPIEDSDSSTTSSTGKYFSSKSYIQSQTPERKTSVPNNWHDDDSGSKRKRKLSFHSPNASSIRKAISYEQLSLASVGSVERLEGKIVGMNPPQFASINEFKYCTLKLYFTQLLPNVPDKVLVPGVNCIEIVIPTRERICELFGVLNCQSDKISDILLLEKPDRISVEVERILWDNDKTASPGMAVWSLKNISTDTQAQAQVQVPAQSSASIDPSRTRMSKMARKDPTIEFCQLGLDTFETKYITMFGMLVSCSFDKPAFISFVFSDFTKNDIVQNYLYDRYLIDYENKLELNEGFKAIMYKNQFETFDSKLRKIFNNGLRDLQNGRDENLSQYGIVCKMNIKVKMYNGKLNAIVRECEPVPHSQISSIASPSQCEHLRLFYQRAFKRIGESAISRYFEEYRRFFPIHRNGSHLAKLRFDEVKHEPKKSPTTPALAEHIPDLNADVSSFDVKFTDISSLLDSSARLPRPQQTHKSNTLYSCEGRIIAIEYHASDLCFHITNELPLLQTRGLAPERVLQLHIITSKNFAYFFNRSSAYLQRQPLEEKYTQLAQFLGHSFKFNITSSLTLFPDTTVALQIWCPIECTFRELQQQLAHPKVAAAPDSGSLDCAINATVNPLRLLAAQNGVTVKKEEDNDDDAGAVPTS
Put plainly: competition EMSA. As to conditions: Tel22 strongly favored when both at 5 nM; residues 1-924.

For data set [2], the system named is Ku (Ku70-Ku80) (Saccharomyces cerevisiae). Put plainly: DNase I footprinting. The note with it: protects ~15 bp near junction.
The subject of the next data set is Ku (Ku70-Ku80) + Cdc13. In words: DNase I footprinting. The note with it: Ku first, then Cdc13, Ku displaced from junction.

For some assays here: The comparison behind a weaker result is the experiment's own reference, which may not be listed here. For some assays here: Protein sequences can lack the tags named with them. For some assays here: The exact form of at least one protein or probe is not confirmed. For some assays here: At least one verdict rests on a figure or table, not on a statement of the authors.

As for “ATAATGATAAGACGTAGAGTGGGTGTGTGTGTGGGGTGGT / ACACCCACTCTACGTCTTATCATTAT [Tel14]”, the binding result with RPA is “binds”.
The same measure, in the same setting: the entry for “ATAATGATAAGACGTAGAGTGGGTGTGTGTGTGGGGTGGTGTGTGTGG / ACACCCACTCTACGTCTTATCATTAT [Tel22]” is “binds”.
Consider TGTGGGTGTGGTGTGGGTGTGG [ssTel22], for which, in data set [1], the binding result is reported as “binds more weakly”.
For “TTCAGACAACAGTAGACTACAAGGATGACGACAAGATTAAGCTTTCTTATGTGGGTGTGTGTGTGGGGTGGTGTGTGTGG / ACACCCACATAAGAAAGCTTAATCTTGTCGTCATCCTTGTAGTCTACTGTTGTCTGAA [L-Tel22]”, the binding result (in data set [2]; in the data set on Ku (Ku70-Ku80) + Cdc13) was “binds” each time.
